Source: ChEMBL document CHEMBL3988442, “University of Dundee, Small-Polar-MMV Screening Library” (2021).

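Whole-parasite assay of Trypanosoma brucei over 72 hours; the read-out is not stated. Concentration: 30 µM. The record gives no direction; compounds that gave an IC50 in retests scored well above the rest, so higher reads as stronger inhibition. Values scatter widely below zero; nearly all retest evidence comes from the higher of the two concentrations used. Of about 64,000 compounds tested this way, about 940 (1.5%) reached 50% or more in at least one test.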

Each number is a percent effect as filed.
How 0% and 100% were set is not recorded. Most values in the screen are low, and negative values occur.
The compounds are a random part of those screened.

compound | Percent Effect
CN1C(=O)CO[C@H](c2ccc(NC(=O)Cc3cccs3)cc2)[C@H]1CO | -6.296
Cc1ccc(CC(=O)N2CCOC(c3nc(C)n[nH]3)C2)cn1 (centres undefined) | 4.757
O=C(Nc1ccccc1OCCc1ccccn1)N1CCOCC1 | -42.19
Cc1ccc(NC(=O)c2cc3c(=O)n(C)c(=O)n(C)c3nc2C)cc1Cl | -1.031
c1cn(-c2nccnc2C2CCCN(C3CCOCC3)C2)cn1 (centres undefined) | -8.574
CCC(=O)c1ccc(OCC(=O)NCC2CC(CC)=NO2)cc1 (centres undefined) | 14.31
O=C(O)C(F)(F)F.[H][C@@]12CN(C(C)=O)CCO[C@]1([H])CN(S(=O)(=O)c1cccnc1)C2 | -15.12
Cn1nc(CNC(=O)c2ccc3nsnc3c2)c2c1CCOC2 | -8.729
O=C(Cn1nc(-c2ccc(F)cc2)oc1=O)NCc1ccccc1F | 11.37
Cn1ncc2c(NCC(=O)N3CCNCC3)nc(C(C)(C)C)nc21 | 19.63
O=C(CCS(=O)(=O)C1CCCC1)NCCc1cccc(O)c1 | 26.74
Cc1noc(C)c1CN1CCc2c(CNc3nccs3)n[nH]c2C1.O=C(O)C(F)(F)F | -6.789
Cn1ncc2c(N[C@H]3CC[C@@H](N)CC3)nc(C(C)(C)C)nc21 | 99.86
Cc1cc(C(=O)NCc2csc(N(C)C)n2)c2ccc(C)c(C)c2n1 | 1.581
CNS(=O)(=O)c1ccc(C(=O)N2CCCC2Cc2ccccc2)o1 (centres undefined) | 9.826
O=C(Cc1ccsc1)N1CCOC(c2nc(-c3ncccn3)no2)C1 (centres undefined) | -1.694
CCC(C)(C)NC(=O)Cn1nc(C)nc1-c1ccccc1 | -13.61
CC(C)N(C)Cc1nnc2n1CCCN(C(=O)C1CCCO1)C2 (centres undefined) | -47.9
COCC1CN(C(=O)c2ccc(C)o2)Cc2nccn2C1 (centres undefined) | -18.35
COCCn1c(CN2CCCCO2)cnc1S(=O)(=O)CC1CCCCC1 | -4.653
CNC(=O)CCCNCc1c(C(C)C)nn(C)c1N(C)C | -31.17
O=S(=O)(c1ccc(F)c(F)c1)n1cc(Cl)cn1 | -22.8
CN(C(=O)CCc1ccncc1)C1CCCN(CCc2ccccc2)C1 (centres undefined) | 2.42
CC1COCCN1C(=O)NCCCn1ccnc1 (centres undefined) | 2.328
CNc1ncc(CN(C)CCN2CCCCC2)cn1 | -39.91
Cc1cc(CNC(=O)CN2CCN(C(=O)OC(C)(C)C)CC2)ccc1F | -23.57
Cc1ccsc1CN(Cc1nc2c(cnn2C)c(=O)[nH]1)C(C)C | -3.049
Cn1cc(C(=O)N2CCCC(c3ncc[nH]3)C2)cn1 (centres undefined) | -12.02
CC(CNC(=O)N1CCN(c2ncccn2)CC1)Cc1cccs1 (centres undefined) | -23.57
[H][C@]12CC[C@](O)(CC1)C(CO)N2Cc1ccco1 (some centres undefined) | -9.73
O=C(O)c1ccc(S(=O)(=O)Nc2ccc(Cl)c(F)c2)c(F)c1 | 0.3842
CCN1CCOC(CNCc2cnc(N(CC)CC)s2)C1 (centres undefined) | -26.78
Cc1cc(C)c2c(OCC(=O)NCC(O)C(F)(F)F)nn(C)c2n1 (centres undefined) | -3.397
COCC(=O)N[C@H]1C[C@@H](C(=O)NCCc2cccc(Cl)c2)N(C)C1 | -16.24
CCC(NCc1ccccc1C)c1ccccc1OCC(=O)NC (centres undefined) | -4.829
CC(C)CN1CCC(NC(=O)c2ccc(F)cc2Cl)CC1 | -22.52
COc1cncc(-n2ccnc2-c2ccc(C(=O)O)s2)c1 | -61.81
CCn1nc2c(cc1=O)CN(Cc1nc(-c3cccs3)no1)CC2 | 22.81
Cc1[nH]ncc1C(=O)NCC1CCC2(CC1)OCCO2 | -39.3
CCN1CCN(C(=O)C(C)SC)CC1 (centres undefined) | -13.28
COCCN1CCC2(CC1)CN(C(=O)c1cccs1)CCO2.O=C(O)C(F)(F)F | -16.53
CCc1nnc2n1CCN(Cc1csc(-c3ccc(C)o3)n1)C2 | -19.9
Cc1cc(NCc2cccc(C#N)c2)ccc1Br | 26.92
Fc1ccc(CN2CCC3(CC2)CC(c2cccnc2)CO3)cc1.O=C(O)C(F)(F)F.O=C(O)C(F)(F)F (centres undefined) | -45.93
CCc1ccc(C2COCCN2C(=O)Nc2cccc(C(C)=O)c2)o1 (centres undefined) | -76.54
Cn1cc(CN(CC2(O)CCNC2)C2CCCCC2)cn1 (centres undefined) | -34.19
O=C(NCC(=O)N1CCN(c2ccccc2)CC1)c1sccc1C1CC1 | 8.848
Cc1cc(O)c(OCC(=O)Nc2nccs2)cn1 | -30.98
Cc1nccn1[C@@H]1CC[C@@H](N(C)S(=O)(=O)c2cccc(F)c2)[C@H]1O | -9.254
CNC(=O)C1CN(Cc2cc(C)on2)CCN(C2CCOCC2)C1 (centres undefined) | -8.429
C[C@@H](CO)Nc1cc(-c2cn[nH]c2)ncn1 | -21.44
Cc1nncn1CCNC(=O)C(C)(C)c1cccc(Cl)c1 | -9.723
COc1ccc(CCNCc2c(C)nn(C)c2N(C)C)cc1OC.Cl | -31.69
CC1CCCN(C(=O)Nc2ccc(F)c(C(N)=O)c2)C1 (centres undefined) | -27.02
COCC1CN(Cc2cnn(C)c2)Cc2nn(C)cc21.O=C(O)C(F)(F)F (centres undefined) | 0.598
Cc1ccsc1CNc1cc(N2CCCC2CO)ncn1 (centres undefined) | 19.66
Cc1cc(C)nc(N2CCC(CNC(=O)c3cnccn3)CC2)n1 | 34.39
Cc1cccc(C2CCCCCN2Cc2cn(C)nc2C)c1 (centres undefined) | 8.355
Cc1nn(C)c(C)c1CNC(=O)CCn1ncc2c(Cl)cccc21 | -27.7
CS(=O)(=O)c1ccc(O[C@H]2COCCN(Cc3ccncc3)C2)cc1 | 7.617
Nc1nc2nc(C3CCN(C(=O)c4cscn4)C3)ccc2s1 (centres undefined) | -6.224
N#CC(NC(=O)CCC1CCC1)c1cnn(-c2ccccc2)c1 (centres undefined) | -14.97
O=C(CO)N1CCCC2(CCN(c3ccsc3)C2=O)C1 (centres undefined) | -19.2
CN(C)CC(=O)N1CCc2sc(C(=O)N3CCN(C)CC3)cc21 | 4.478
CNC(=O)c1cn[nH]c1C1CCN(Cc2ccccc2OC)C1 (centres undefined) | 0.9318
CCc1nnc(NC(=O)N(CCOC)Cc2ccc(C)o2)s1 | -48.89
Cc1cnn(CC(C)Nc2nc(C)cc(N(C)C)n2)c1 (centres undefined) | 9.087
Cc1nc(CN2CCCn3c(nc(Cn4ccnc4)cc3=O)C2)cs1 | 22.2
O=C(O)C(F)(F)F.[H][C@@]12COC[C@]1(COc1cccnc1)CN(C(=O)COc1ccccc1)C2 | -78.69
O=C(O)C(F)(F)F.O=C(c1ccnnc1)N1CC[C@]2(C[C@H](Oc3ncccc3F)CO2)C1 | -5.807
CN(Cc1ccc([S+](C)[O-])cc1)c1ccc(Br)cn1 (centres undefined) | 1.974
CCc1noc(C(C)N(C)Cc2ccc(OC)c(OC)c2)n1 (centres undefined) | -41.32
COc1ccccc1Oc1ncccc1CNC(=O)CN1CCCC1=O | -7.536
COc1ccc(N2CCN(CC[C@H](O)c3ccccc3)CC2=O)cc1 | 9.79
CC(C)NC(=O)C1CN(C(=O)Nc2ccc(F)cc2)CC12CCOCC2 (centres undefined) | 39.93
COCC1CC2(CCN(c3ccccn3)CC2)CN1C(C)C.O=C(O)C(F)(F)F.O=C(O)C(F)(F)F (centres undefined) | -8.833
Cc1nccn1CCCC(=O)N1CCC2(CCC(=O)N(C(C)C)C2)CC1 | -24.45
O=S(=O)(N1CCOCC1)N1CCOC(CCc2ccccc2)C1 (centres undefined) | -11.73
COC(=O)N1CCC(CNC(=O)C2CC2)CC1 | -25.66
CC(C)CCn1[nH]c(CNc2ccc(F)cc2)nc1=O | 1.745
Cc1nc(NCc2nncn2C2CC2)c2c(CC(C)C)csc2n1 | 23.12
CCOC(=O)C1CCCCN1Cc1c[nH]nc1-c1cc2ccccc2o1 (centres undefined) | 58.53
COc1c[nH]c(C(=O)N2CCN(c3cccc(Cl)c3)CC2)cc1=O | 2.885
CCCc1cc(C(=O)NC(c2ccccc2)c2n[nH]c(C)n2)[nH]n1 (centres undefined) | -50.61
N#Cc1cccnc1N1CCCC(CO)(CCOc2ccccc2)C1 (centres undefined) | -23.62
CCc1nc(CN(C)C2CCN(CC(=O)N3CCOCC3)C2)no1 (centres undefined) | -11.71
Cc1ccc(N2C[C@H](O)[C@@H](N3CCN(c4ccccn4)CC3)C2)nn1 | -3.96
CSCc1nc(CNC(=O)C2CCCN(C(=O)N(C)C)C2)cs1 (centres undefined) | -60.07
CCc1nc2n(n1)CCCC2Nc1nc(C2CC2)ns1 (centres undefined) | -2.995
[H][C@]12CC[C@]([H])(CN(S(=O)(=O)N(C)C)C1)N(C(=O)c1cn(C)nc1C)C2 | -15.05

5 of the entries, repeated:

{"compound": "CC(C)CN1CCC(NC(=O)c2ccc(F)cc2Cl)CC1", "Percent Effect": -22.52}
{"compound": "CNC(=O)CCCNCc1c(C(C)C)nn(C)c1N(C)C", "Percent Effect": -31.17}
{"compound": "CCC(C)(C)NC(=O)Cn1nc(C)nc1-c1ccccc1", "Percent Effect": -13.61}
{"compound": "Cn1cc(C(=O)N2CCCC(c3ncc[nH]3)C2)cn1", "stereo": "centres undefined", "Percent Effect": -12.02}
{"compound": "COc1ccc(N2CCN(CC[C@H](O)c3ccccc3)CC2=O)cc1", "Percent Effect": 9.79}